Laboratory results from patent publication US10695562B2, “Interventional drug delivery system and associated methods” (The University of North Carolina at Chapel Hill, priority 2009, dated 2020).

Assay: Iontophoretic delivery of doxorubicin into agarose phantoms
Conditions: 5 minutes
Description: A cylindrical tube of 2% (w/v) agarose gel in deionized (D.I.) water was fabricated as a phantom with an outer diameter (o.d.)=2.5 cm and length ˜3-4 cm. […]. Electrodes were fabricated out of platinum foil (width ˜0.25 cm, length ˜3 cm, thickness ˜0.05 cm). A solution of 0.25% Doxorubicin in 4.875% DMSO and 94.875% DI water was used to model the delivery of a small molecule drug. […] was filled inside the cored reservoir in the agarose phantom and the source electrode (anode, in this case) was inserted into […] reservoir. The other end of the anode was hooked to a DC power source with an alligator clip. The agarose phantom was immersed in a beaker containing DI water. The cathode, a second piece of platinum foil, was placed in the PBS beside the agarose phantom and hooked up to the DC power source. In the negative control, passive diffusion of […] was allowed without any passage of current for 5 minutes. In the experimental condition, a constant current of 5 mA (voltage ˜9.5V) was driven through the electrodes for the same duration (5 minutes). […] The radial diffusion of […] from the edge of the cored reservoir was quantified. […]

## COc1cccc2c1C(=O)c1c(O)c3c(c(O)c1C2=O)C[C@@](O)(C(=O)CO)C[C@@H]3O[C@H]1C[C@H](N)[C@H](O)[C@H](C)O1 [Doxorubicin]
Constant current 5 mA (~9.5V), 0.25% Doxorubicin
  radial diffusion of the dye from the edge of the cored reservoir: spread radially to the edge of the agarose phantom
Negative control 0 mA, passive diffusion
  radial diffusion of the dye from the edge of the cored reservoir: localized to the inner wall of the reservoir
